The other results are listed elsewhere or left out. Shown are side measurements of this screen, not its main read-out; they come without a call. Compounds called inactive in the main read-out are mostly missing here. Potencies come from curve fits of mixed quality, noted in brackets.
Assay: qHTS Assay to Find Inhibitors of Chronic Active B-Cell Receptor Signaling
Conditions: ABC-DLBCL IkBa-CBG/CBR reporter, luminescence ratio (green luciferase fused to IkBa over red control in TMD8 lymphoma cells), 4 h
In short: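 Doxycycline induced both beetle luciferases in TMD8 lymphoma cells; IKK-driven degradation limits the IkappaBalpha-fused green signal, while red luminescence normalises for cell number and nonspecific effects. Compounds tested up to 46 uM, 4 hrs.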

[1] = measured here: CBR red luminescence, cell number
[2] = measured here: IkBa-CBG green luminescence

SMILES | AC50 [1] | AC50 [2]
CC(C)CC(=O)Nc1ccc(Oc2ccc(NC(=O)CC(C)C)cc2)cc1 | 5.17 µM [rising, partial curve] | –
O=C(Nc1ccccn1)c1cc2ccccc2cc1O | 2.82 µM [falling, full curve] | –
O=C1c2ccccc2C(=O)C1C1=Nc2ccccc2NC(c2ccccc2)C1 (configuration not stated) | 0.501 µM [rising, full curve, poor fit] | –
COc1cc(S(=O)(=O)n2nnc3ccccc32)c(OC)cc1Cl | 29.1 µM [rising, single point] | –
C/C(N)=C(/C#N)C(=O)COC(=O)c1ccc(OCC2CCCO2)cc1 (configuration not stated) | 3.98 µM [rising, single point] | –
CCOC(=O)CSc1nnc(-c2ccccc2OC)o1 | 18.4 µM [rising, single point] | –
Cc1nn(Cc2ccccc2)c2c1C(c1ccc(Cl)cc1)C(C#N)=C(N)O2 (configuration not stated) | – | 29.1 µM [falling, single point]
N#CC1=C(N)C2=CCCC[C@H]2[C@H](c2ccc(Br)cc2)C1(C#N)C#N | 29.1 µM [falling, single point] | –
CCNC(=S)NCc1ccc2[nH]c(C)cc2c1 | 23.1 µM [rising, partial curve, poor fit] | –
O=C(COC(=O)CCCOc1ccc(Cl)cc1Cl)NCc1ccccc1 | 20.6 µM [rising, partial curve, poor fit] | –
CC(=O)NC1(c2ccccc2)CCN(Cc2nnnn2C(C)(C)C)CC1 | 0.0259 µM [rising, partial curve, poor fit] | –
Nc1c(Cl)cc(Cl)cc1C(=O)OCC(=O)N1CCOCC1 | 6.31 µM [falling, partial curve] | –
O=C(CNc1ccc(F)cc1)c1ccccc1 | 15.8 µM [falling, partial curve, poor fit] | –
CC(C)c1ccc2nc(N)sc2c1 | 4.47 µM [rising, full curve, poor fit] | –
Fc1cccc(-c2nnn3c2nc(Cl)c2ccccc23)c1 | 0.355 µM [falling, full curve] | –
COC(=O)c1c(NC(=O)CN2CCN(c3ccccc3OC)CC2)c2c(C)cccc2n1C | 11.2 µM [rising, partial curve, poor fit] | –
Cc1nc(NC(=O)c2ccc3c(c2)OCO3)ccc1Br | 35.5 µM [falling, partial curve, poor fit] | –
CCn1c(=N)n(CCOc2ccc(Br)cc2)c2ccccc21 | 7.94 µM [falling, partial curve, poor fit] | –
O=C(COC(=O)c1cc(S(=O)(=O)N2CCOCC2)ccc1F)NC1CC1 | 0.259 µM [falling, partial curve, poor fit] | –
COc1cc(OC)c(C(=O)Nc2ccc3ccccc3c2)cc1OC | 1.78 µM [rising, full curve] | –
CN(CC(=O)Nc1ccc(Cl)cc1)c1ccc(S(=O)(=O)N2CCCCC2)cc1[N+](=O)[O-] | 9.2 µM [falling, partial curve, poor fit] | –
O=C1CN(Cc2ccccc2)C(=NCc2ccco2)S1 | 14.6 µM [rising, partial curve] | –

Entries of single compounds, quoted from the list. Order of values: AC50 [1]	AC50 [2]
`CC(=O)NC1(c2ccccc2)CCN(Cc2nnnn2C(C)(C)C)CC1` is listed as 0.0259 µM [rising, partial curve, poor fit]	–
`COc1cc(S(=O)(=O)n2nnc3ccccc32)c(OC)cc1Cl` is listed as 29.1 µM [rising, single point]	–
`COC(=O)c1c(NC(=O)CN2CCN(c3ccccc3OC)CC2)c2c(C)cccc2n1C` is listed as 11.2 µM [rising, partial curve, poor fit]	–
`CN(CC(=O)Nc1ccc(Cl)cc1)c1ccc(S(=O)(=O)N2CCCCC2)cc1[N+](=O)[O-]` is listed as 9.2 µM [falling, partial curve, poor fit]	–

The list continues.

SMILES | AC50 [1] | AC50 [2]
O=C(NCCc1ccccc1)c1ccc(Cl)nc1 | 0.231 µM [rising, partial curve, poor fit] | –
Cc1ccc(CN(Cc2ccco2)C(=S)NCC(=O)O)cc1 | 29.1 µM [rising, partial curve, poor fit] | –
COc1ccc(OCC(=O)Nc2c3c(nn2-c2ccccc2)CS(=O)(=O)C3)cc1 | 11.2 µM [rising, partial curve, poor fit] | –
COc1cc(OC)cc(C(=O)NC2=NCCS2)c1 | 0.0231 µM [falling, full curve, poor fit] | –
Cc1ccc(C2=NC(=O)/C(=C/c3cc(O)c(O)c(Br)c3)S2)cc1 | 17.8 µM [rising, single point] | –
CCCc1oc2c(c(=O)c1CC)C(=O)CC(C)(C)C2 | 20.6 µM [rising, single point] | –
Nc1c(S(=O)(=O)c2cccs2)c2nc3ccccc3nc2n1CCc1ccccc1 | 10 µM [falling, partial curve] | –
COc1ccc(C)c2sc(NC(=O)c3cccc(N4C(=O)CCC4=O)c3)nc12 | 0.562 µM [falling, full curve, poor fit] | –
CCN(CC)c1ccc(CNc2ccc3c(c2)ncn3C(C)(C)C)cc1 | 35.5 µM [rising, partial curve, poor fit] | –
COC(=O)c1cccc(Nc2ccc([N+](=O)[O-])cn2)c1 | 20 µM [rising, single point] | –
CCn1c2ccccc2c2cc(NC(=O)CSc3nnc(-c4ccc(OC)cc4)n3N)ccc21 | 12.6 µM [rising, partial curve, poor fit] | –
CCCNC(=O)NC(=O)COC(=O)/C=C/c1cc(Br)ccc1F | 1.12 µM [falling, partial curve, poor fit] | –
CC(=O)N1C(C(=O)O)CSC1c1ccc(C)cc1 (configuration not stated) | 6.51 µM [falling, single point] | –
COC(=O)C1CCCCN1C(=O)c1cc(COc2cccc3cnccc23)on1 (configuration not stated) | 20 µM [falling, partial curve, poor fit] | –
COc1ccc(N2CCN(CC(=O)Nc3sccc3C#N)CC2)cc1 | 20.6 µM [rising, partial curve, poor fit] | –
Cc1cccc2cc(C#N)c(NCc3ccccc3)nc12 | 35.5 µM [falling, single point] | –
COc1ccc(Br)c(C(=O)NC2CCCC2)c1 | 0.0891 µM [rising, full curve, poor fit] | –
COc1ccc(CCNCC(O)Cn2c3ccccc3c3ccccc32)cc1OC (configuration not stated) | 22.4 µM [falling, single point] | –
C=CCn1c(N)c(C(=O)OC(C)(C)C)c2nc3ccccc3nc21 | 29.1 µM [falling, single point] | –
COc1ccccc1Nc1nc(NCCCN(C)C)nc(N)c1[N+](=O)[O-] | 15.8 µM [falling, single point] | –
N#CCCN(C(=O)Nc1ccc(Cl)c(Cl)c1)c1ccccc1 | 10.3 µM [rising, partial curve, poor fit] | –
Cc1ccccc1-n1c(SCC(=O)c2c(N)n(C)c(=O)n(C)c2=O)nnc1-c1cccnc1 | 0.146 µM [falling, full curve, poor fit] | –

SMILES | AC50 [1] | AC50 [2]
COc1ccc(N=c2oc3cc(O)ccc3cc2C(=O)Nc2ccccn2)cc1OC | 4.47 µM [falling, partial curve, poor fit] | –
Cc1cc(C(F)(F)F)nc(-n2cc(-c3ccccc3)nn2)n1 | 2.82 µM [falling, partial curve, poor fit] | –
Cc1ccc(OCCn2ncc3ccccc3c2=O)c(C)c1 | 3.16 µM [rising, full curve] | –
COc1ccc(Cl)cc1NC(=O)CN(C)C(=O)COc1ccccc1F | 31.6 µM [falling, single point] | –
COc1ccc(C(=O)NC(=S)Nc2ccc(CN3CCOCC3)cc2)cc1Cl | 10 µM [falling, partial curve] | –
Oc1ccccc1CNc1cccc2cccnc12 | 11.2 µM [falling, partial curve, poor fit] | –
CSc1nnc(-c2ccc([N+](=O)[O-])cc2)o1 | 3.55 µM [rising, partial curve, poor fit] | –
CCCCS(=O)(=O)/C=C\C=C/S(=O)(=O)CCCC | 4.11 µM [falling, full curve, poor fit] | 5.8 µM [rising, full curve, poor fit]
O=C(c1ccc(F)cc1)N1C2CCC1CC(O)(c1ccc(F)cc1)C2 (configuration not stated) | 35.5 µM [falling, single point] | –
CCOc1ccc2nc(SCC(=O)Nc3nonc3C)[nH]c2c1 | 5.01 µM [rising, full curve, poor fit] | –
NC(=O)COc1c(-c2ccco2)oc2ccccc2c1=O | 10 µM [falling, partial curve, poor fit] | –
CC(NCC(=O)Nc1ccccc1C(=O)NC1CC1)c1ccccc1Cl (configuration not stated) | 32.6 µM [rising, single point] | –
CCOC(=O)c1ccc(NC(=O)CSc2ncccn2)cc1 | 0.92 µM [falling, full curve, poor fit] | –
COc1cc(C(=S)NC2CCCCC2)ccc1O | 0.0164 µM [rising, full curve, poor fit] | –
Cc1cc(C)n2nc(C(=O)Nc3cccc(S(=O)(=O)N4CCCC4)c3)nc2n1 | 0.631 µM [rising, partial curve, poor fit] | –
C=C(C)COc1ccc2c(C)c(CC(=O)N3C[C@H]4C[C@@H](C3)c3cccc(=O)n3C4)c(=O)oc2c1 | 1.58 µM [rising, full curve] | –
Nc1nnc(SCc2ccc(Cl)cc2)s1 | 20.6 µM [rising, partial curve, poor fit] | –
Cc1ccc(-c2noc(CNc3ccccc3)n2)cc1 | 0.146 µM [rising, full curve] | –
C/C(=N\N1CCN(Cc2ccc(Cl)cc2)CC1)c1ccc([N+](=O)[O-])cc1 | 5.62 µM [falling, single point] | –
COc1ccccc1NC(=O)CC(=O)c1ccccc1 | 35.5 µM [falling, single point] | –
Cn1cccc1C(=O)NCC1COc2ccccc2O1 (configuration not stated) | 25.9 µM [falling, single point] | –
Cc1ccc(C)c(NC(=O)CSc2nc(=O)n(CCN(C)C)c3c2CCC3)c1 | 3.16 µM [falling, single point] | –

Reference: PubChem BioAssay AID493014 (National Center for Advancing Translational Sciences (NCATS), 2011)
